Our source for the conjugation yield and step yield values is patent US20140206842 (published 2014).

One series can be described thus: general procedure: solution-phase peptide synthesis. The settings on record: conjugation step.
“3-Acetyl-11-Keto-β-Boswellic acid-Lys (Z)-Thr (Bzl)-Thr (Bzl)-Lys (Z)-Ser (Bzl)-OBzl” came in with a conjugation yield of 74%.

The substance “Acetyloleanoyl Lys (Z)-Thr (Bzl)-Thr (Bzl)-Lys (Z)-Ser (Bzl)-OBzl” gave a conjugation yield of 80%.

On to “Acetylursolyl-Lys (Z)-Thr (Bzl)-Thr (Bzl)-Lys (Z)-Ser (Bzl)-OBzl”, for which the conjugation yield worked out at 80%.

Still in this series, the particulars now being: late stage modification step.
Substance “Acetyl-keto-β-boswellyl-Lys-Thr-Thr-Lys-Ser-OH” had a step yield of 90%.

For Acetyloleanoyl-Lys-Thr-Thr-Lys-Ser-OH, the step yield was 90%.

With Acetylursolyl-Lys-Thr-Thr-Lys-Ser-OH, the step yield worked out at 90%.

As to Keto-β-boswellyl-Lys-Thr-Thr-Lys-Ser-OH, the step yield was found to be 85%.

With Oleanoyl-Lys-Thr-Thr-Lys-Ser-OH, the step yield is listed as 85%.

Substance Urosoyl-Lys-Thr-Thr-Lys-Ser-OH came in with a step yield of 85%.
